For six molecules, binding results are on record in article PMC10351895.

Protein sequences, listed by entry. Tags and fused reporters are not part of them.
UniProt Q3U155: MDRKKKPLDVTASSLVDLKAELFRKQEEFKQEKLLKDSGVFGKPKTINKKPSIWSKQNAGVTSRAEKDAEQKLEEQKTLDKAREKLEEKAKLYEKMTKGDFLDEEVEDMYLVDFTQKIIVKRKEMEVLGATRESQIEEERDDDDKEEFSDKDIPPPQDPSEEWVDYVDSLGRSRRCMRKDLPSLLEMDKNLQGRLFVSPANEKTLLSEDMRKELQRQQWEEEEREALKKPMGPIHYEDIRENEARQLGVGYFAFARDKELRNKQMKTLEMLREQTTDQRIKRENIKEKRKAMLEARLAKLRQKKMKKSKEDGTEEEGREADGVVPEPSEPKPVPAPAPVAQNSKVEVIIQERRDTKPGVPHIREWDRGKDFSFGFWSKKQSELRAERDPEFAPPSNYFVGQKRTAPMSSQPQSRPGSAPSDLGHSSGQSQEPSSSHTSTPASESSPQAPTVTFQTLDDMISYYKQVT
UniProt Q8BTI8: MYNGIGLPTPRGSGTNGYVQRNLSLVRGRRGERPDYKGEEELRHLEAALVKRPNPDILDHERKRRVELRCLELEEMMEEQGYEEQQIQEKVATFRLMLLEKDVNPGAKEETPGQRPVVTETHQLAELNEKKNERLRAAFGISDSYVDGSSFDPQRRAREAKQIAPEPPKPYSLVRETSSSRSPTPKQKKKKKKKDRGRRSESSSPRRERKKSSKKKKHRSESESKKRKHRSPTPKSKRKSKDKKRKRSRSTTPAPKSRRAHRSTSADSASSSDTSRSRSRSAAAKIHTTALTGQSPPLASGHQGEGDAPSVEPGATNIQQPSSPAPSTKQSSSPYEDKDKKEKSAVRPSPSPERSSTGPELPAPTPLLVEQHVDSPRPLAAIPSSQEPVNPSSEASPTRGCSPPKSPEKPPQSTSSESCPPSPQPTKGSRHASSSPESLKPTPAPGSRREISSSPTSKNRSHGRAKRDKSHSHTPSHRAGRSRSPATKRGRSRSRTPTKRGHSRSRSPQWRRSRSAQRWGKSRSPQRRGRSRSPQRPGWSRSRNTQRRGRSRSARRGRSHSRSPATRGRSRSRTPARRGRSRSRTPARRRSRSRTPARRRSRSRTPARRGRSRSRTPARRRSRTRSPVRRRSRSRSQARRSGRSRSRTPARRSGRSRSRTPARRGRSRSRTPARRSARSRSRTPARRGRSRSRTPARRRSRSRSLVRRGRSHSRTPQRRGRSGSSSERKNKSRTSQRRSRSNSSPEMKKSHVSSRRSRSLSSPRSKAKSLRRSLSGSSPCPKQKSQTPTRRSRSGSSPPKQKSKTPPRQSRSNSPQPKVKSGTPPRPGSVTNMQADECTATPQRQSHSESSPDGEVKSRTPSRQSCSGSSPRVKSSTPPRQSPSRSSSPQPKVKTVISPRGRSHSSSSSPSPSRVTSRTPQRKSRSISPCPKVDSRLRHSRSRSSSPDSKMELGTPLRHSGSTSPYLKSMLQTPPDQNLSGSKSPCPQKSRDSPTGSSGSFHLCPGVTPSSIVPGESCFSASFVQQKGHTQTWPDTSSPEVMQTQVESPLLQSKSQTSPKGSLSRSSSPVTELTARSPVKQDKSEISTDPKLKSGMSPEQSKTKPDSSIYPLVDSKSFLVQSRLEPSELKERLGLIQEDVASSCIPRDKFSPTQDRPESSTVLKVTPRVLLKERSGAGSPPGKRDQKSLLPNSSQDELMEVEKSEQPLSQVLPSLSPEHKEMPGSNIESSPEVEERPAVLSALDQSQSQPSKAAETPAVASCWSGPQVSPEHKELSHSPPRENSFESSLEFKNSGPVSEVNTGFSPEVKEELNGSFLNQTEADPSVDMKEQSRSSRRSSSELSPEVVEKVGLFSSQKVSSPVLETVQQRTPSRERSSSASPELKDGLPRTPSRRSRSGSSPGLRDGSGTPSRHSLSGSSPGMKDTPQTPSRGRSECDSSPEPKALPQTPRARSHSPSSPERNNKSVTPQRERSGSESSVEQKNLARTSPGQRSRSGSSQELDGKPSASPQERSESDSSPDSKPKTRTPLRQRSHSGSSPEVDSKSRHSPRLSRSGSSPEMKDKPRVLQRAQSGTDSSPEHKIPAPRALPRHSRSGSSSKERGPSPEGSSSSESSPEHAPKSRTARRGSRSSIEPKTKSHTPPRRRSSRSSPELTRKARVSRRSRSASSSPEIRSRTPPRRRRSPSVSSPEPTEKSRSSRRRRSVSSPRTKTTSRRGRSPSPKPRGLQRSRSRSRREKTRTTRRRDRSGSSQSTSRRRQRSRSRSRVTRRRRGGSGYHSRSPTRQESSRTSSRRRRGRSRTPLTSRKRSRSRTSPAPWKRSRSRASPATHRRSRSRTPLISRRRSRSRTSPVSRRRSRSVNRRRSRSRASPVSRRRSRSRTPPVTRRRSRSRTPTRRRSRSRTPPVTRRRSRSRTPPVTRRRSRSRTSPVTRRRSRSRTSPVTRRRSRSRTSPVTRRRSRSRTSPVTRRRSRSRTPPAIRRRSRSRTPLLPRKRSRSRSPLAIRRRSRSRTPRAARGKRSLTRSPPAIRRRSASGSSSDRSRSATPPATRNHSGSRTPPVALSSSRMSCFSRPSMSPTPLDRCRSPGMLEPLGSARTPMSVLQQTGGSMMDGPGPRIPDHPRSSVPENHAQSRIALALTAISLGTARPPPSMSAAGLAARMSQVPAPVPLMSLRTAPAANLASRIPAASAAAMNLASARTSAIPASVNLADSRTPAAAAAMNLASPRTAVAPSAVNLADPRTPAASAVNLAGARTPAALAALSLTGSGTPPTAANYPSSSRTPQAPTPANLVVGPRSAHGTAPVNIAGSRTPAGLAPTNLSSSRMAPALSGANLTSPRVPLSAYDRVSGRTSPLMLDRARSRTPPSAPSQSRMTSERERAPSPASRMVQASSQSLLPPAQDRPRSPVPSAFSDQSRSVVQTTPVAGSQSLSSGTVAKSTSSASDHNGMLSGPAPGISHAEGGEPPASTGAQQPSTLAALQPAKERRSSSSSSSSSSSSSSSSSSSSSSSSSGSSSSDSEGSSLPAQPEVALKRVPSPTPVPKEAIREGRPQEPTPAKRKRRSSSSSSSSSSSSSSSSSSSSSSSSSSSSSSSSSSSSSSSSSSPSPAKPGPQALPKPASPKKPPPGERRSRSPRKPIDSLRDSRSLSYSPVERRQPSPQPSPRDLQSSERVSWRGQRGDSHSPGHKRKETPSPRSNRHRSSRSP
UniProt O35286: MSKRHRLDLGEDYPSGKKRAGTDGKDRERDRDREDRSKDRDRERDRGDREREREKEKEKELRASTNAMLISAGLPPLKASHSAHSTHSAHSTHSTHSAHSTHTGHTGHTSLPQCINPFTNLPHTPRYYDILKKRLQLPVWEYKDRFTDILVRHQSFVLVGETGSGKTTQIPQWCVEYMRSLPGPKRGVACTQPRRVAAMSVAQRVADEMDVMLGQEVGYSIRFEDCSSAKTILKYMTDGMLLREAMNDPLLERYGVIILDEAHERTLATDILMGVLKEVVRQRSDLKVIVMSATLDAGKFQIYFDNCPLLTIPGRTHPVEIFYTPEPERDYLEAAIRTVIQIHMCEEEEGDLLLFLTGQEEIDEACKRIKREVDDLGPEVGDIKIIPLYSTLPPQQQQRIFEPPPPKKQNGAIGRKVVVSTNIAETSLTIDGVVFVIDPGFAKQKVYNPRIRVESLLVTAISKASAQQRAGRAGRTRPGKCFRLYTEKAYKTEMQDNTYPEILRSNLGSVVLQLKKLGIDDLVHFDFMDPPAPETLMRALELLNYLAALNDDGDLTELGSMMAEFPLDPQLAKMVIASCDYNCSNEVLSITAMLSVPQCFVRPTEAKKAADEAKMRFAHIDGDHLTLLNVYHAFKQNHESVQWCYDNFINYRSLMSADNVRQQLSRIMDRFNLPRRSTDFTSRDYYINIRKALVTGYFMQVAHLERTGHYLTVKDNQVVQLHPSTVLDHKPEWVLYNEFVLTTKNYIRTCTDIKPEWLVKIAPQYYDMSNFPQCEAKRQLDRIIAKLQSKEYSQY

These are yes or no findings as the source states them, for the method shown. In cells and extracts the contact can be indirect. Here binding means that the protein was enriched with, or labelled near, the bait; the list need not be complete. For part of these data: Tags and fused reporters may be left off the sequences shown.

Assay [1] has as its target T1, 3A-NRDE2 (nuclear RNAi-defective 2 with a composite 3xFLAG-AviTag, endogenous gene tagged) (mouse (endogenous in mESCs)) (UniProt Q80XC6).
T1 sequence (chain, biotin on the AviTag (cells express bacterial BirA ligase)): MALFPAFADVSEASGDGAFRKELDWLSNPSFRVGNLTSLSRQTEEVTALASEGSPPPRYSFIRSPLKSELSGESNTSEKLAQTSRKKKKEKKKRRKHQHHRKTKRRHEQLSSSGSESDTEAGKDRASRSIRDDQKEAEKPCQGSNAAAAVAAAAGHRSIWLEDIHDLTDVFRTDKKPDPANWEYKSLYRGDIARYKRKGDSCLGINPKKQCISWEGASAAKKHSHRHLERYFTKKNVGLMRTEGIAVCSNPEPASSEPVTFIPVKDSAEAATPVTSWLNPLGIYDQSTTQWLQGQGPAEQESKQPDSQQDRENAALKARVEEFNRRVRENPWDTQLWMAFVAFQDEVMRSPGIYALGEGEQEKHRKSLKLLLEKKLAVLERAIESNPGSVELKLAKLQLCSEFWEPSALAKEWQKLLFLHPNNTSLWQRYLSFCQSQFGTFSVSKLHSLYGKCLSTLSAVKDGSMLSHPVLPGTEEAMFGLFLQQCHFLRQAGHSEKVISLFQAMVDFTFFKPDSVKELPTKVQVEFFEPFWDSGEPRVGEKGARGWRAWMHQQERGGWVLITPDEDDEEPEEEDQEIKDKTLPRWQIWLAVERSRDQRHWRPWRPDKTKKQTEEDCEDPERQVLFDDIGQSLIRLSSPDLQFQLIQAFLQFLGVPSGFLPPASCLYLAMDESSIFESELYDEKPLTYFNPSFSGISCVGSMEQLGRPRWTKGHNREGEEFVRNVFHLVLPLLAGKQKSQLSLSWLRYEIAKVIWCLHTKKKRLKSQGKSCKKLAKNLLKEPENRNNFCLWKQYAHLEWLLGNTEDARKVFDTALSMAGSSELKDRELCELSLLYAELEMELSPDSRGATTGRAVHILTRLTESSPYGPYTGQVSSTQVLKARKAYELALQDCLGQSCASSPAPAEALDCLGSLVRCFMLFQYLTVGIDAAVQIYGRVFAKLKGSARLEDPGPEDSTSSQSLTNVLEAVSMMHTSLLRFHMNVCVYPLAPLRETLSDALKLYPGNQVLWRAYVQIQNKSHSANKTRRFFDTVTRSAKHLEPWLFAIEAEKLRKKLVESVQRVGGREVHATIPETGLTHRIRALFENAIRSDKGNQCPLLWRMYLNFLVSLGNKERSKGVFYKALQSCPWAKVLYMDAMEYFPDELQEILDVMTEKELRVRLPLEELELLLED
Kind of assay: cross-linking + affinity purification with mass spectrometry; xTAP-MS: cells fixed 10 min with 0.1% formaldehyde (final), lysis in 1% SDS with Benzonase, tandem anti-FLAG then streptavidin purification of the endogenous 3A-tagged bait with stringent washes (0.5 M NaCl, 1% Triton X-100, 0.1% SDS); compared with untagged control, three replicates.

Assay [2] deals with 3A-CCDC174 (endogenous gene tagged) (mouse (endogenous in mESCs)) (UniProt Q3U155). The assay is described as above.
The target of assay [3] is T1, 3A-NRDE2 (nuclear RNAi-defective 2 with a composite 3xFLAG-AviTag, endogenous gene tagged) (mouse (endogenous in mESCs)). Kind of assay: affinity purification with mass spectrometry; nTAP-MS: tandem anti-FLAG then streptavidin purification of the endogenous 3A-tagged bait from mESC lysate under mild native low-salt conditions (B100: 10 mM Tris-HCl pH 7.5, 2 mM MgCl2, 100 mM NaCl, 0.5% Triton X-100, Benzonase); compared with untagged control, three replicates.

With SRRM2 (from UniProt Q8BTI8 1-2703), the binding result in assay [1] is “binds”. Take DHX15 (from UniProt O35286 1-795): the binding entry in assay [2] and in assay [1] was “binds” each time.

B1: MTREX, nuclear exosome-associated RNA helicase (protein, UniProt Q9CZU3 1-1040)
chain: MADAFGDELFSVFEDDSTSAAGAKKDKEKEKWKGPPGSADKAGKRLDTKLQSESASGGKNKRDLDVEGTDEPIFGKKPRIEDSINEDLSLADLMPRVKVQSVETVEGCTHEVALPADEDYIPLKPRVGKAAKEYPFILDAFQREAIQCVDNNQSVLVSAHTSAGKTVCAEYAIALALREKQRVIFTSPIKALSNQKYREMYEEFQDVGLMTGDVTINPTASCLVMTTEILRSMLYRGSEVMREVAWVIFDEIHYMRDSERGVVWEETIILLPDNVHYVFLSATIPNARQFAEWICHLHKQPCHVIYTDYRPTPLQHYIFPAGGDGLHLVVDENGDFREDNFNTAMQVLRDAGDLAKGDQKGRKGGTKGPSNVFKIVKMIMERNFQPVIIFSFSKKDCEAYALQMTKLDFNTDEEKKMVEEVFNNAIDCLSDEDKKLPQVEHVLPLLKRGIGIHHGGLLPILKETIEILFSEGLIKALFATETFAMGINMPARTVLFTNARKYDGKDFRWISSGEYIQMSGRAGRRGMDDRGIVILMVDEKMSPTIGKQLLKGSADPLNSAFHLTYNMVLNLLRVEEINPEYMLEKSFYQFQHYRAIPGVVEKVKNSEEQYNKIVIPNEENVVIYYKIRQQLAKLGKEIEEYIHKPKYCLPFLQPGRLVKVKNEGDDFGWGVVVNFSKKSNVKPNSGELDPLYVVEVLLRCSKESLKNSATEAAKPAKPDEKGEMQVVPVLVHLLSAISTVRLYIPKDLRPVDNRQSVLKSIQEVQRRFPDGVPLLDPIDDMGIQDQGLKKVIQKVEAFEHRMYSHPLHNDPNLETVYTLCERKAQIALDIKSAKRELKKARTVLQMDELKCRKRVLRRLGFATSSDVIEMKGRVACEISSADELLLTEMMFNGLFNDLSSEQATALLSCFVFQENSSEMPKLTEQLAGPLRQMQECAKRIAKVSAEAKLEIDEETYLSSFKPHLMDVVYTWATGATFAHICKMTDVFEGSIIRCMRRLEELLRQMCQAAKAIGNTELENKFAEGITKIKRDIVFAASLYL
As for B1, the binding entry in assay [3] and in assay [1] was “binds” in each case.

B2: TFIP11 (protein, UniProt Q9ERA6 1-838)
chain: MSLSHLYRDGEGHLDDDDDDERENFEITDWDLQNEFNPNRQRHWQTKEEATYGVWAERDSDEERPSFGGKRARDYSAPVNFISAGLKKGAAEEADSEDSDAEEKPVKQEDFPKDLGPKKLKTGGNFKPSQKGFSGGTKSFMDFGSWERHTKGIGQKLLQKMGYVPGRGLGKNAQGIINPIEAKQRKGKGAVGAYGSERTTQSLQDFPVADSEEEAEEEFQKELSQWRKDPSGSKKKPKYSYKTVEELKAKGRVSKKLTAPQKELSQVKVIDMTGREQKVYYSYSQISHKHSVPDEGVPLLAQLPPTAGKEARMPGFALPELEHNLQLLIERTEQEIIQSDRQLQYERDMVVSLSHELEKTAEVLAHEERVISNLSKVLALVEECERRMQPHGADPLTLDECARIFETLQDKYYEEYRLADRADLAVAIVYPLVKDYFKDWHPLEDGSYGTQIISKWKSLLENDQLLSHSSQDLSSDAFHRLMWEVWMPFVRNVVAQWQPRNCEPMVDFLDSWAHIIPVWILDNILDQLIFPKLQKEVDNWNPLTDTVPIHSWIHPWLPLMQARLEPLYSPVRSKLSSALQKWHPSDASAKLILQPWKEVLTPGSWEAFMLRNIVPKLGMCLGELVINPHQQHMDAFYWVMDWEGMISVSSLVGLLEKHFFPKWLQVLCSWLSNSPNYEEITKWYLGWKSMFSDQVLAHPSVKDKFNEALDIMNRAVSSNVGAYMQPGARENIAYLTHTERRKDFQYEAMQERREAENMAQRGIGVAASSVPMNFKDLIETKAEEHNIVFMPVIGKRHEGKQLYTFGRIVIYIDRGVVFVQGEKTWVPTSLQSLIDMAK
For the molecule B2, the binding entry in assay [2] and in assay [1] was “binds” in each case.

B3: U2AF1 (protein, UniProt Q9D883 1-239)
chain: MAEYLASIFGTEKDKVNCSFYFKIGACRHGDRCSRLHNKPTFSQTIALLNIYRNPQNSSQSADGLRCAVSDVEMQEHYDEFFEEVFTEMEEKYGEVEEMNVCDNLGDHLVGNVYVKFRREEDAEKAVIDLNNRWFNGQPIHAELSPVTDFREACCRQYEMGECTRGGFCNFMHLKPISRELRRELYGRRRKKHRSRSRSRERRSRSRDRGRGGGGGGGGGGGRERDRRRSRDRERSGRF
On to B3, for which the binding entry in assay [1] was “binds”.

B4: CWC22 (protein, UniProt Q8C5N3 1-908)
chain: MKSSVAHMKSSGHNRRETHSSYRRSSSPEDRYTEQERSPRDRGYSDYSRSDYERSRRGYSYDDSMESRSRDREKRRERERDADHRKRSRKSPSPDRSPARGGGQSSPQEEPTWKKKKDELDPLLTRTGGAYIPPAKLRMMQEQITDKSSLAYQRMSWEALKKSINGLINKVNISNISIIIQELLQENIVRGRGLLSRSVLQAQSASPIFTHVYAALVAIINSKFPQIGELILKRLILNFRKGYRRNDKQLCLTASKFVAHLINQNVAHEVLCLEMLTLLLERPTDDSVEVAIGFLKECGLKLTQVSPRGINAIFERLRNILHESEIDKRVQYMIEVMFAVRKDGFKDHPVILEGLDLVEEDDQFTHMLPLEDDYNPEDVLNVFKMDPNFMENEEKYKAIKKEILDEGDSDSNTDQGAGSSEDEEEEDEEEEGEDEEGGQKVTIHDKTEINLVSFRRTIYLAIQSSLDFEECAHKLLKMEFAESQTKELCNMILDCCAQQRTYEKFFGLLAGRFCMLKKEYMESFESIFKEQYDTIHRLETNKLRNVAKMFAHLLYTDSLPWSVLECIKLSEETTTSSSRIFVKIFFQELCEYMGLPKLNARLKDETLQPFFEGLLPRDNPRNTRFAINFFTSIGLGGLTDELREHLKNTPKVIVAQKPEAEQKKPALTSSSSESSSASDSSDSESDSSESSSESSSDASDSSSSSSTQSSTSGITAHSAKGTRKKRQGKARGEEVDKLARGHQALERRREGGREDQRHQEGRTERARSERRRAQNSRDADWRDPLAKHIDDRSHENSHSRVGNGREQGSHREPEDRHGEPKKRRERRDSFSENEKQRSRNQDSDNVRRKDRSKSRERSRRHSGHKGDDARCQNSAERRWEKPGRRPEQSRESKRSQDRRREKSPTTQK
In the case of B4, the binding result in assay [1] is listed as “binds”.
